Test results taken from patent publication US11202807B2, “Bacterial species” (WAGENINGEN UNIVERSITEIT, priority 2016, dated 2021).
At least one compound was matched to its structure with a doubt left.

Tested on: strain Pyt^T
Assay: Antibiotic resistance by the Etest method (MIC)
Format: cell-based, Akkermansia glycaniphilus
Conditions: EUCAST breakpoint table for Gram-negative anaerobes (Version 5.0)
Description: Antibiotic resistance was determined using the Etest method for both ampicillin and vancomycin (bioMérieux, Marcy l'Étoile, France). The minimal inhibitory concentration (MIC) was determined after 48 hours of incubation. In more detail, strain Pyt^T was grown in mucin media and after reaching stationary phase 100 ul was plated onto BHI plates supplemented with 0.5% (v/v) hog gastric mucin (Type III, Sigma), and 0.05% (w/v) of cysteine-HCL (Sigma-ALdrich). Plates were incubated for 24-48 hours under strictly anaerobic conditions. The level of resistance was determined using the European Committee on Antimicrobial Susceptibility Testing (EUCAST) breakpoint table for interpretation of MICs for Gram-negative anaerobes (Version 5.0, valid from 2015-01-01).

CO[C@H]1/C=C/O[C@@]2(C)Oc3c(C)c(O)c4c(O)c(c(/C=N/N5CCN(C)CC5)c(O)c4c3C2=O)NC(=O)/C(C)=C\C=C\[C@H](C)[C@H](O)[C@@H](C)[C@@H](O)[C@@H](C)[C@H](OC(C)=O)[C@@H]1C [rifampicin]
Level of resistance / sensitivity of strain Pyt^T to the antibiotic: sensitive
